# The other results are listed elsewhere or left out.
# Amino acid sequences for entries named in this document (tags omitted).
# UniProt Q0JBA9, entry or part of it: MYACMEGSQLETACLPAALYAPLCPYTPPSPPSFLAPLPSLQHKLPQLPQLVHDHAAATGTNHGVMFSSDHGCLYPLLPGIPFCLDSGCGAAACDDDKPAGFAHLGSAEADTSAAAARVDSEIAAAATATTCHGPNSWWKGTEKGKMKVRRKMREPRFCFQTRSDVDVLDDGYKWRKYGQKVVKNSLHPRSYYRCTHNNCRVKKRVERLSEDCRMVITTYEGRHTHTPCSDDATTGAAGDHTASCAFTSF
# Molecular target: OsWRKY34 (Oryza sativa, UniProt Q0JBA9 1-250)
# Assay: protein-binding microarray (RPBM); PBS, 2% BSA, 51.3 ng/ul salmon testes DNA, 50 uM zinc acetate, 200 nM TF, 25 C, 1 h; high values mean tight binding
# Conditions: protein: recombinant; tags: N-terminal polyhistidine and DsRed monomer fusion (pET32a); label: CyDye5-dUTP incorporated in the synthesized complementary strand; 3' TTTTT single-stranded linker to array surface; dsDNA, one strand shown
# In short: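 The binding signal for each feature is its fluorescence intensity in arbitrary units. An Axon 4000B scanner was used to read a custom Agilent array that had been made double-stranded with Cy5-dUTP primer extension, blocked with 2% BSA, incubated at 25 °C for 1 h with 200 nM protein in PBS, 2% BSA, salmon testes DNA and 50 µM zinc acetate, and washed. The protein was an N-terminal polyhistidine–DsRed transcription factor fusion from E. coli BL21-CodonPlus, purified on Ni–NTA.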
row,Sequence,binding signal
1,TCCCTTTCGCTTTTCCAGCCTCATCAGTTTCTTCACATTTCGGAGTCACCTAGTGCAG,8650 fluorescence intensity (a.u.)
2,ATTTCACTTGTGCCTGTTTTGATGAGTTCGTCTATATCTTCGGAGTCACCTAGTGCAG,8350 fluorescence intensity (a.u.)
3,TCCGCTTCCGCTCCACTCTTCTCCTCTCCCGCGCGCCACGCGGAGTCACCTAGTGCAG,9630 fluorescence intensity (a.u.)
4,CCGTTTCACAATGTAAGTCATTCTAGCATTTCTCATATTTCGGAGTCACCTAGTGCAG,9930 fluorescence intensity (a.u.)
5,AGGCTTGTTTGGTTTACTGTCATGTTAAAATGTTGACAATCGGAGTCACCTAGTGCAG,8600 fluorescence intensity (a.u.)
6,TTTCAGTGTATTACAAGCAGCTTTCAAGTTTCAACACATTCGGAGTCACCTAGTGCAG,8170 fluorescence intensity (a.u.)
7,ACGGGTGATCGCTAACTTGCCGTCTTGCCGGATTGCCCGCCGGAGTCACCTAGTGCAG,8350 fluorescence intensity (a.u.)
8,GGTGCCGTGAACTCACTTGGTCTGGTTTTTCTTATCCTCTCGGAGTCACCTAGTGCAG,10400 fluorescence intensity (a.u.)
9,ATGTGTGATGCCCAGTTTGCTCTGCTCCTGTTAAAATATACGGAGTCACCTAGTGCAG,9700 fluorescence intensity (a.u.)
10,CATCCGCCCGTCCTTATCCATCCGCCTTATCCATCCATCCCGGAGTCACCTAGTGCAG,9000 fluorescence intensity (a.u.)
11,GCCGTCGCTCATCGAGCTCGACATCTCCGTACCGCCACTCCGGAGTCACCTAGTGCAG,9450 fluorescence intensity (a.u.)
12,GCCTCATCCCAATCCCGGTTGGTGCCACCCAAACCAATCTCGGAGTCACCTAGTGCAG,8830 fluorescence intensity (a.u.)
13,GCATTTTTCTGTCTTCATCCGGTCCGCACCAACTACACCACGGAGTCACCTAGTGCAG,13700 fluorescence intensity (a.u.)
14,GCCTTCACAAAATCACAAGCGAATGATTTTACTGCCTTGCCGGAGTCACCTAGTGCAG,9190 fluorescence intensity (a.u.)
15,GTGGGTGTTGATTTGCGGGTGTGTCCCCTCTCCTCTTAGGCGGAGTCACCTAGTGCAG,9310 fluorescence intensity (a.u.)
16,ACTTATTCCTAGGCCCAAACACCCGGCTCACATCACATCGCGGAGTCACCTAGTGCAG,10400 fluorescence intensity (a.u.)
17,GACCTTATGTTAACTTCTTCTAGAGATTGGACCTTATGTTCGGAGTCACCTAGTGCAG,10500 fluorescence intensity (a.u.)
18,GATACCATCTCATATAGTGTACTTTCTCCATCCTATAAAACGGAGTCACCTAGTGCAG,8410 fluorescence intensity (a.u.)
19,CGCCATCGCCAACGCCAACGCCTCCGCGGACTCCATTGTCCGGAGTCACCTAGTGCAG,8540 fluorescence intensity (a.u.)
20,CTACCTTGGGCTATGCCGTCGCTCTTTCTCCAAGGCGCGCCGGAGTCACCTAGTGCAG,8610 fluorescence intensity (a.u.)
21,TTTCTTTCCTGTTTTAGGAGGGTTTTCCACGTTAAATCTTCGGAGTCACCTAGTGCAG,8290 fluorescence intensity (a.u.)

# An excerpt of these results, bar-delimited.
row | Sequence | binding signal
11 | GCCGTCGCTCATCGAGCTCGACATCTCCGTACCGCCACTCCGGAGTCACCTAGTGCAG | 9450 fluorescence intensity (a.u.)
12 | GCCTCATCCCAATCCCGGTTGGTGCCACCCAAACCAATCTCGGAGTCACCTAGTGCAG | 8830 fluorescence intensity (a.u.)
13 | GCATTTTTCTGTCTTCATCCGGTCCGCACCAACTACACCACGGAGTCACCTAGTGCAG | 13700 fluorescence intensity (a.u.)
14 | GCCTTCACAAAATCACAAGCGAATGATTTTACTGCCTTGCCGGAGTCACCTAGTGCAG | 9190 fluorescence intensity (a.u.)

# Next records:

row,Sequence,binding signal
1,TACATCATCCCGTGCCATGTCCATATAAACGCTTCACCCACGGAGTCACCTAGTGCAG,8360 fluorescence intensity (a.u.)
2,TCATCATTCCAATATGCTATGAAGTTGTGATAATTTTTATCGGAGTCACCTAGTGCAG,8630 fluorescence intensity (a.u.)
3,ATCTTCTGTTTCATATTTAACCTTTATCTTGCTTCACAAACGGAGTCACCTAGTGCAG,10800 fluorescence intensity (a.u.)
4,TTGATGGGTTTTGGGTTTTTGTGCTGCTCCTTTTTCGTAACGGAGTCACCTAGTGCAG,19800 fluorescence intensity (a.u.)
5,TTACCGATGCGACCTGTCCCTGTCACTCCCGCCTCGGTAACGGAGTCACCTAGTGCAG,9060 fluorescence intensity (a.u.)
6,AATAGACAGCATTTTCGGCTTCCAACCGGCTACCTTCTTTCGGAGTCACCTAGTGCAG,8160 fluorescence intensity (a.u.)
7,TCCATTTCATATTACAAGTCGTTTTGACTTTTTTTTCTAACGGAGTCACCTAGTGCAG,10700 fluorescence intensity (a.u.)
8,TAATCCGCTCAATAATGATCTGTTTCAAACTGCGCCACCCCGGAGTCACCTAGTGCAG,9040 fluorescence intensity (a.u.)
9,GTCGACGTGTTTCAAATTCCTATGCTTGAAAGCACTTTCCCGGAGTCACCTAGTGCAG,9300 fluorescence intensity (a.u.)
10,GTTTGGATGTTTTCTTGTTCCTTTGTGTGCGGTGGAATAACGGAGTCACCTAGTGCAG,12000 fluorescence intensity (a.u.)
11,CCTCTTCACACGACGCTCCCATTTTTATTTATATATATCACGGAGTCACCTAGTGCAG,11100 fluorescence intensity (a.u.)
12,ACACAATTTTCATTACATTTGTTCTCATCTTCAGAAATTACGGAGTCACCTAGTGCAG,10400 fluorescence intensity (a.u.)
13,AGTGTCGTTGACTAACTCGATGGTCACCAAGCAGATGGCACGGAGTCACCTAGTGCAG,12800 fluorescence intensity (a.u.)
14,GAAGCAACAGTTCTCTCGCCTCCGGTTCTCCATTGTCCATCGGAGTCACCTAGTGCAG,8750 fluorescence intensity (a.u.)
15,ACCCTTACGAACGTACGCTTGCACTTTACCTCTATGAGCACGGAGTCACCTAGTGCAG,10500 fluorescence intensity (a.u.)
16,TACCGTATTGTGTTCTTTAATGTTTTTATTTTTTATTTTCCGGAGTCACCTAGTGCAG,10300 fluorescence intensity (a.u.)
17,TTTTACTTTTGATTGTAACGCGTTTTGGTTTAATTAGTACCGGAGTCACCTAGTGCAG,9910 fluorescence intensity (a.u.)
18,CTTGGGCCCCACCTGACAGCGACCGGTCCAACCGCTAACCCGGAGTCACCTAGTGCAG,8220 fluorescence intensity (a.u.)
19,TCCATCTTATCTCCGCGTCCGCCTCGCGCCACCGCCGCCTCGGAGTCACCTAGTGCAG,9800 fluorescence intensity (a.u.)
20,CGTCCAGCCCGACCGAGCGCTGCATTGCTACTGTACCGCGCGGAGTCACCTAGTGCAG,8160 fluorescence intensity (a.u.)
21,GGACTTATACCTATTTTTACCTTACAAGTATTCCTTTGGACGGAGTCACCTAGTGCAG,8560 fluorescence intensity (a.u.)

row,Sequence,binding signal
1,TTATTTCGGAACAAAAGGGCGGGGTCAAAAATAAAAACTTCGGAGTCACCTAGTGCAG,8380 fluorescence intensity (a.u.)
2,CTTATCGCTTTCTCCTCGTTGTCTCCGCGCGCGCTCTCTCCGGAGTCACCTAGTGCAG,8200 fluorescence intensity (a.u.)
3,CCCACCACCCGCCACCCGCCATCGCTCCACCCACCGCCCGCGGAGTCACCTAGTGCAG,11900 fluorescence intensity (a.u.)
4,GATGAATTTGCCGTTCCCTGTTCAAAATTTGACGTTCGCTCGGAGTCACCTAGTGCAG,10400 fluorescence intensity (a.u.)
5,TTGCTGCTGTCACATTGTTTTCCTTTGATTTTGTGTTTCGCGGAGTCACCTAGTGCAG,11800 fluorescence intensity (a.u.)
6,GTTTACCTTTTGAACTCTTCTACTACATTTTTGCTGTTTACGGAGTCACCTAGTGCAG,9800 fluorescence intensity (a.u.)
7,TGCTGCTGCTGACGTGGCTCCCGCATCTGCCGCGCGCTATCGGAGTCACCTAGTGCAG,8080 fluorescence intensity (a.u.)
8,TCATGGTGCATGATCTAATTACTGGCTTCTATCCTTCTCACGGAGTCACCTAGTGCAG,8980 fluorescence intensity (a.u.)
9,CTTTTTCATTTTTTATCGTTTGTTGTACCTCACTCTTCTACGGAGTCACCTAGTGCAG,8590 fluorescence intensity (a.u.)
10,AGGTTTCTTGGGTTTTGTTTAGGTAAAAGTTTAGCTTTGCCGGAGTCACCTAGTGCAG,8030 fluorescence intensity (a.u.)
11,AACAGGGGACGCGGATTATCATCTTTTCTATTTCCTATTTCGGAGTCACCTAGTGCAG,9690 fluorescence intensity (a.u.)
12,GCAGTACAGTACATATAATTTACTCTATACTCTCTCCGTACGGAGTCACCTAGTGCAG,9840 fluorescence intensity (a.u.)
13,CCCGATGACCACCCTACGCTAGCAATCTTCCTCTTGTCGTCGGAGTCACCTAGTGCAG,8460 fluorescence intensity (a.u.)
14,TCGCCCAGCGTACTGCCACCTTTTGTCTACTGCGCCTACCCGGAGTCACCTAGTGCAG,9330 fluorescence intensity (a.u.)
15,AATTCCAGACAAGAGCCATCAAAGCATATACTCTCTCTCTCGGAGTCACCTAGTGCAG,8390 fluorescence intensity (a.u.)
16,CGGGCAGGTTGTCGCCGTCATCGTGTGGTGCGATTGCAATCGGAGTCACCTAGTGCAG,8150 fluorescence intensity (a.u.)
17,TCAGTGTGTGTGTGTCGTGCTGCTGCATGTGTGCGTACGTCGGAGTCACCTAGTGCAG,11000 fluorescence intensity (a.u.)
18,CCGGTATTGATGTGTTCCCCAAGCCAAAAAAAAAAAGAAGCGGAGTCACCTAGTGCAG,64800 fluorescence intensity (a.u.)
19,ACCTCTCGTTCTCCTGGCCGTCGTCGGTGGTGGCCGGCGGCGGAGTCACCTAGTGCAG,8620 fluorescence intensity (a.u.)
20,AAGTCACACATAAAGTACTGTTCATATTTCATCATCTAATCGGAGTCACCTAGTGCAG,9530 fluorescence intensity (a.u.)
21,TAGCTGGTGACGGAAGATATTTCCTACTTTATATCTCTTTCGGAGTCACCTAGTGCAG,9000 fluorescence intensity (a.u.)

row,Sequence,binding signal
1,AATTGGGGTTGTTCGGTAGCTAAGTGTACCTTGATTACAACGGAGTCACCTAGTGCAG,10000 fluorescence intensity (a.u.)
2,TGTTTAAACTGTTGTTATGGTTAGTTCGGTCTATAACCGACGGAGTCACCTAGTGCAG,9100 fluorescence intensity (a.u.)
3,TTCCATGACACATCCTCCTGATCTTGGCATATTTGCCCTCCGGAGTCACCTAGTGCAG,9300 fluorescence intensity (a.u.)
4,ATATCTCGCGTCGTCGCTCGCCGCTCGCCATAGCATCTCCCGGAGTCACCTAGTGCAG,11800 fluorescence intensity (a.u.)
5,ACATGAGCCCAAACCGTCCCATTTCCTATTATTGCCACTCCGGAGTCACCTAGTGCAG,10100 fluorescence intensity (a.u.)
6,GGGAGGCTTTGTTCTAGCTTGTACACCAGAGATTCAGAAACGGAGTCACCTAGTGCAG,9840 fluorescence intensity (a.u.)
7,GTCACATTCGCCGCCCTCTGGGAGGGCGATTTTTAAAAATCGGAGTCACCTAGTGCAG,9320 fluorescence intensity (a.u.)
8,CTATCTTGATGTTCATTGACCATGTTCCTCCAAACCCCTACGGAGTCACCTAGTGCAG,9150 fluorescence intensity (a.u.)
9,CGCACTGACCCGTACAGCACTCAACTCTCTCTCTAACCTTCGGAGTCACCTAGTGCAG,8330 fluorescence intensity (a.u.)
10,AACCAAGGTGACCACCATTTTCTTTTTTTTTTCTTTTTGCCGGAGTCACCTAGTGCAG,9420 fluorescence intensity (a.u.)
11,AGATAGTTTCTCCACTAGTGTTAGTTATCTTGGTTAGATACGGAGTCACCTAGTGCAG,9130 fluorescence intensity (a.u.)
12,CATGACTTTATATAATTTTTTTATTCGCGACATCTGAATCCGGAGTCACCTAGTGCAG,9030 fluorescence intensity (a.u.)
13,GCCGTTCCTCGCCTGCATCTCGTTCCCCGGCGCCATTACTCGGAGTCACCTAGTGCAG,9250 fluorescence intensity (a.u.)
14,GTCGGTGTATCTAGTACCACGTTCTTGCTACTAATTACCACGGAGTCACCTAGTGCAG,8040 fluorescence intensity (a.u.)
15,CTTTTTTTTGTGGAGGGAGATGGAGTGGGGAGGGCACTTGCGGAGTCACCTAGTGCAG,12300 fluorescence intensity (a.u.)
16,TTGTGTAGGTTTTGTTTCTTTCTTCTTTTTTCGAAAAGAGCGGAGTCACCTAGTGCAG,8940 fluorescence intensity (a.u.)
17,GGGAAACAGCTCCGCGCCCGCGCGCCAAACTTGCTCCAAACGGAGTCACCTAGTGCAG,8810 fluorescence intensity (a.u.)
18,TCTGATTATTTTCGTTCTTTTTTTTTTCGCATCCGCTTTTCGGAGTCACCTAGTGCAG,9840 fluorescence intensity (a.u.)
19,GAGGAGGTGGTGGTGGAGGAGGACGAGGAGGTGGTTGTCGCGGAGTCACCTAGTGCAG,8490 fluorescence intensity (a.u.)
20,CCTTTCCACTGAGAATTGCCCAGGGAAGAGATATCTGTAACGGAGTCACCTAGTGCAG,8330 fluorescence intensity (a.u.)
21,AATTTTCGGGTGAAATAGTATCATTTTGGGGTTTAAAATTCGGAGTCACCTAGTGCAG,8370 fluorescence intensity (a.u.)
